Results deposited as PubChem BioAssay AID743454 (Peter MacCallum Cancer Centre, 2014)

- Aim: 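Search for knock-downs that restore vorinostat killing in resistant colon cancer cells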 (primary screen)
- System: human HCT116-VR colon cancer cells, selected for vorinostat resistance
- Knock-down reagent: siRNA pool against human genes, 40 nM siRNA pool
- Timing: vorinostat for 24 h, read-out about 72 h after transfection
- Conditions: vorinostat at 2.5 µM final
- Measured: 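Cell viability by CellTiter-Fluor and caspase 3/7 activity by luminescence, each scaled to mock wells per plate, duplicates averaged, then robust z-scored over all plates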
- Direction: viability robust z-score: higher = more viable cells than screen typical; caspase robust z-score: higher = more caspase 3/7 activity than screen typical
- Active means: 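a knock-down is a hit when classed RV1 or RV2 for lowered viability, or CA1 or CA2 for caspase activation; those lethal without drug were dropped; hits were retested singly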
This is one part, drawn at random, of about 18,000 reagents. Over the whole deposit, 450 (2.5%) were called active. 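Single biological run; no consistent viability z cut-off exists, so the class columns, not z-scores, define the calls.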 Unmarked entries are inactive.

USB1: viability hit class = no change; caspase hit class = no change; viability robust z-score = 0.12; caspase robust z-score = -0.21
ZNF583: viability hit class = no change; caspase hit class = no change; viability robust z-score = -0.38; caspase robust z-score = -0.92
VWA3B: viability hit class = no change; caspase hit class = no change; viability robust z-score = -0.56; caspase robust z-score = -0.96
MXRA7: viability hit class = no change; caspase hit class = no change; viability robust z-score = 0.38; caspase robust z-score = -0.24
ANKMY1: viability hit class = no change; caspase hit class = no change; viability robust z-score = 1.83; caspase robust z-score = 0.3
CELA3B: viability hit class = no change; caspase hit class = no change; viability robust z-score = 0.08; caspase robust z-score = -0.16
RAB7A: viability hit class = no change; caspase hit class = no change; viability robust z-score = -0.56; caspase robust z-score = -0.01
CCK: viability hit class = no change; caspase hit class = no change; viability robust z-score = -1.03; caspase robust z-score = -0.76
GOSR2: viability hit class = no change; caspase hit class = no change; viability robust z-score = 0.79; caspase robust z-score = -0.3

Continued (3 carried over from the part before).
RAB7A: viability hit class = no change; caspase hit class = no change; viability robust z-score = -0.56; caspase robust z-score = -0.01
CCK: viability hit class = no change; caspase hit class = no change; viability robust z-score = -1.03; caspase robust z-score = -0.76
GOSR2: viability hit class = no change; caspase hit class = no change; viability robust z-score = 0.79; caspase robust z-score = -0.3
ZNF233: viability hit class = no change; caspase hit class = no change; viability robust z-score = -0.01; caspase robust z-score = -1.33
GABRP: viability hit class = no change; caspase hit class = no change; viability robust z-score = -0.05; caspase robust z-score = -0.5
OPA3: viability hit class = no change; caspase hit class = no change; viability robust z-score = 0.65; caspase robust z-score = 0.04
INSM1: viability hit class = no change; caspase hit class = no change; viability robust z-score = 0.62; caspase robust z-score = -0.34
SLC9D1: viability hit class = no change; caspase hit class = no change; viability robust z-score = -0.12; caspase robust z-score = 1.61
OR4A5: viability hit class = no change; caspase hit class = no change; viability robust z-score = 0.06; caspase robust z-score = -0.9
CDK11B: viability hit class = no change; caspase hit class = no change; viability robust z-score = -1.44; caspase robust z-score = 0.02
FUOM: viability hit class = no change; caspase hit class = no change; viability robust z-score = 0.12; caspase robust z-score = 4.92
TREM2: viability hit class = no change; caspase hit class = no change; viability robust z-score = -1.8; caspase robust z-score = 4.64
DNAJC21: viability hit class = no change; caspase hit class = no change; viability robust z-score = -0.64; caspase robust z-score = -0.81
SEC16A: viability hit class = no change; caspase hit class = no change; viability robust z-score = 0.15; caspase robust z-score = -1.03
KCNN3: viability hit class = no change; caspase hit class = no change; viability robust z-score = -1.1; caspase robust z-score = 0.33
